Reference: the supplement of paper PMC10849652
The list shows a part of the results.

Sequences of proteins named here, by UniProt entry; tags and fusion partners are left off. A change or cut given only in a name is not applied to a line headed by its entry.
UniProt Q6IBS0: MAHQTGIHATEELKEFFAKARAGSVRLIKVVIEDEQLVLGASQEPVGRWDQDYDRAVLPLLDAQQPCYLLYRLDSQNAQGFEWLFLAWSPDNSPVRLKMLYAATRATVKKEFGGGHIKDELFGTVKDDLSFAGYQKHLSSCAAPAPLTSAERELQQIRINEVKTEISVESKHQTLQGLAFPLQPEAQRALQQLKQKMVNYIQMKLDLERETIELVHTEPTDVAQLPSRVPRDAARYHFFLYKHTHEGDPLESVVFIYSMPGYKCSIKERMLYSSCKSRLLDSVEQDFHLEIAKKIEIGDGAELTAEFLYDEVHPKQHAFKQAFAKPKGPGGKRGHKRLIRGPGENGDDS
UniProt P63146, whole entry, looked up: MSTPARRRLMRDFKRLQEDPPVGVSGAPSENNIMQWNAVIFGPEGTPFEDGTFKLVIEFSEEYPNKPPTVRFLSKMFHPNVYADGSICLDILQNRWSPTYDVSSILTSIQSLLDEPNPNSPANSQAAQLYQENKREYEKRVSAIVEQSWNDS
UniProt Q9BSJ2, whole entry, looked up: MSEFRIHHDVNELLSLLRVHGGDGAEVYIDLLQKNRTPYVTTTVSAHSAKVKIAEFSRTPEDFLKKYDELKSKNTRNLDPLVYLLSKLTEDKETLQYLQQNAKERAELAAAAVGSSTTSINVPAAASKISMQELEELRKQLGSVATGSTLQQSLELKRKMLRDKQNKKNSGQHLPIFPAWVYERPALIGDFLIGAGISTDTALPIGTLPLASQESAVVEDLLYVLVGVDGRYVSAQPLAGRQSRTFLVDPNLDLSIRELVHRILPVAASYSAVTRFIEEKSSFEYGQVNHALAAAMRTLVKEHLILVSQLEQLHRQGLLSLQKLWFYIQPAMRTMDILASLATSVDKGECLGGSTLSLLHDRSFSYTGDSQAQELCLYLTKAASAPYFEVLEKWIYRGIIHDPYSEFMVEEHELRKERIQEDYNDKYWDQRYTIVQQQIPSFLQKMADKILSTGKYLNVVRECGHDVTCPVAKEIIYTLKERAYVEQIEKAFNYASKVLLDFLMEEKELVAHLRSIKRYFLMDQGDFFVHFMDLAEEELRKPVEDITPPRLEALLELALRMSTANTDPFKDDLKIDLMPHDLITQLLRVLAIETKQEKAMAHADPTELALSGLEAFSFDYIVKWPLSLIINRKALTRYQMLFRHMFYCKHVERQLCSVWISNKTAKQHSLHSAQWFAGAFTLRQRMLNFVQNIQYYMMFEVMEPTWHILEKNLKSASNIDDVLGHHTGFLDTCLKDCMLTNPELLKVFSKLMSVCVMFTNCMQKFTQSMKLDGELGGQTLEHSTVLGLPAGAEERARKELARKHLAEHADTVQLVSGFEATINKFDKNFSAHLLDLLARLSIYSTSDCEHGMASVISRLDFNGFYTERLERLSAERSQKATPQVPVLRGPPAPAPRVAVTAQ
UniProt Q9BTX7: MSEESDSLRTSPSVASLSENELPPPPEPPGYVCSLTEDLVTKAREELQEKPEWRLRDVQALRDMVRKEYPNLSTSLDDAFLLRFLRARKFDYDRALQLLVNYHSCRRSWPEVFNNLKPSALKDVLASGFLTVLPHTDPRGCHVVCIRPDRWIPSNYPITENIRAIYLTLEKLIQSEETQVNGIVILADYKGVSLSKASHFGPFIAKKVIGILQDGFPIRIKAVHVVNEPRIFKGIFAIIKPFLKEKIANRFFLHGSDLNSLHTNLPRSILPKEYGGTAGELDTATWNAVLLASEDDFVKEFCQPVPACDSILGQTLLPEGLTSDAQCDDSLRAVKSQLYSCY
UniProt Q8N0Z6: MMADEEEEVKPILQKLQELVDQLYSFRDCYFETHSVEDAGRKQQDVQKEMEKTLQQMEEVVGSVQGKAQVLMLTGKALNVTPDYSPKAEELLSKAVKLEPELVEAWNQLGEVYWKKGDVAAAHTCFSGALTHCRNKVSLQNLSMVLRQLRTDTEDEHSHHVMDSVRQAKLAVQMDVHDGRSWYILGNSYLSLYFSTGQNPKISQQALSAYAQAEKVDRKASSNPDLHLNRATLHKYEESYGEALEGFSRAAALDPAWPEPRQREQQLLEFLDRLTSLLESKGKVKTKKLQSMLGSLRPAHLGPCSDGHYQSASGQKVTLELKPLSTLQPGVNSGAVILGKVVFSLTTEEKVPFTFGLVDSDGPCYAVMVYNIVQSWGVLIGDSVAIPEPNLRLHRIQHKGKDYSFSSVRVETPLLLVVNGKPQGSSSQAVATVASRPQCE
UniProt Q9UBT2: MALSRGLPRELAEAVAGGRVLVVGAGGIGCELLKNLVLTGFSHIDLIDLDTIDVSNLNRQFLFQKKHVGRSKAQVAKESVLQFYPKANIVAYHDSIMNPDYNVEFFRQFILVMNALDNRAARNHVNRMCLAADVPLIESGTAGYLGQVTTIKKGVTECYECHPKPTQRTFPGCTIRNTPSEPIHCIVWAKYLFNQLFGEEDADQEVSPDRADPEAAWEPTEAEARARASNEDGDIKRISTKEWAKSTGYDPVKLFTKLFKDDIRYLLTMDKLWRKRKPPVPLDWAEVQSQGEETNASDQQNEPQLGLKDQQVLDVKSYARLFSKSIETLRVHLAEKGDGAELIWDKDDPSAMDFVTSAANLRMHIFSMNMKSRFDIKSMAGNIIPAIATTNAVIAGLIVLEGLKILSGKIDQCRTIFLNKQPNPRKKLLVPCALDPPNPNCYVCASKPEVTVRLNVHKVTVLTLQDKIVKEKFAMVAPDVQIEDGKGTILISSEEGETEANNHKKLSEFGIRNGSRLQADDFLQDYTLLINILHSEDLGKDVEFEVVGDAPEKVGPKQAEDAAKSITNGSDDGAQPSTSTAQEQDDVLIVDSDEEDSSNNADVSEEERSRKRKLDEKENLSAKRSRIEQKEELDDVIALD
UniProt Q712K3: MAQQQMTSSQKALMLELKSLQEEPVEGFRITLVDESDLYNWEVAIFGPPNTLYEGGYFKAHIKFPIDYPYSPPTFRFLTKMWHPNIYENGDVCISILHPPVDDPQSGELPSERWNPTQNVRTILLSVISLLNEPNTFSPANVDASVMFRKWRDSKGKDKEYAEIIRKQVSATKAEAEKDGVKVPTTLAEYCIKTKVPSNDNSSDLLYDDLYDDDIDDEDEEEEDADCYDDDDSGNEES
UniProt Q9H4B7, whole entry, looked up: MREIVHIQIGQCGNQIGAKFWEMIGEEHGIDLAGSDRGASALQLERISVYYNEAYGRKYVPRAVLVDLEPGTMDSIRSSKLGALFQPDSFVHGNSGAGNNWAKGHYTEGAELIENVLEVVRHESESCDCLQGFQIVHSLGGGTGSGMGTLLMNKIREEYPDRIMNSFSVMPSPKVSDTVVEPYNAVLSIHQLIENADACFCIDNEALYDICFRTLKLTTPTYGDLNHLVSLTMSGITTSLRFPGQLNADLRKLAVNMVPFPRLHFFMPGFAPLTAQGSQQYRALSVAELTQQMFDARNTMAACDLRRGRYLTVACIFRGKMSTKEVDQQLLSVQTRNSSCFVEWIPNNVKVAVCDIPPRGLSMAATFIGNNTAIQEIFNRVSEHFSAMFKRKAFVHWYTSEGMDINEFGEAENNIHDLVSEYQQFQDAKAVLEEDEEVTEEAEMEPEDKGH
UniProt Q8TBC4: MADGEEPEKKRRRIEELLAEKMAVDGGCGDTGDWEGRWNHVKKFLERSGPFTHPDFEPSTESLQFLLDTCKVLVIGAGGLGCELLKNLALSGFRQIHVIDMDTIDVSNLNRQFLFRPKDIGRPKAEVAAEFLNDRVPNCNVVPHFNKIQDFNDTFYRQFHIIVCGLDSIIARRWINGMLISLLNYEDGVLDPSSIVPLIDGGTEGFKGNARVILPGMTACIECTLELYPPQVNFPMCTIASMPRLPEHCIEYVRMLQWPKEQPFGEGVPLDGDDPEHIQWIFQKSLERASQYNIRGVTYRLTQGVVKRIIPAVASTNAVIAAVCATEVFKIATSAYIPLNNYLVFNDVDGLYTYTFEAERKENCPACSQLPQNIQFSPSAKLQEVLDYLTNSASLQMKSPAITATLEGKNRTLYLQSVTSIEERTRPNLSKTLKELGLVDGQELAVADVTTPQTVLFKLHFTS
UniProt Q14166: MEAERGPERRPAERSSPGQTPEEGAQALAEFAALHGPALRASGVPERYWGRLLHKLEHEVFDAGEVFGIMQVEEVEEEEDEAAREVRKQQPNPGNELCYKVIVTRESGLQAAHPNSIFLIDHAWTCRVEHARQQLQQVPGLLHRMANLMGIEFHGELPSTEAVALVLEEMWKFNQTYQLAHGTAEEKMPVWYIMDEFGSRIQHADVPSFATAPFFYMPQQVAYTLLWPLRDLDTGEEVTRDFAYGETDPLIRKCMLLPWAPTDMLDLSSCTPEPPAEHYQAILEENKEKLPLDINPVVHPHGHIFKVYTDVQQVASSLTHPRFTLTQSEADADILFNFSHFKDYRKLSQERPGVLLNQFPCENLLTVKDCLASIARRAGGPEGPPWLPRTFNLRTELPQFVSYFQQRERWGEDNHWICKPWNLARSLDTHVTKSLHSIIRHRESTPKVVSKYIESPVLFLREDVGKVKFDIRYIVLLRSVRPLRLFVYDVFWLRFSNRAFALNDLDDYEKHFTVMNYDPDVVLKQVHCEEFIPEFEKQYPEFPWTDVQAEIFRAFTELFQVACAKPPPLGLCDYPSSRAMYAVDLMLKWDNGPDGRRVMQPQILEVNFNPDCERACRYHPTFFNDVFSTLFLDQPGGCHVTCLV
UniProt Q8NG11: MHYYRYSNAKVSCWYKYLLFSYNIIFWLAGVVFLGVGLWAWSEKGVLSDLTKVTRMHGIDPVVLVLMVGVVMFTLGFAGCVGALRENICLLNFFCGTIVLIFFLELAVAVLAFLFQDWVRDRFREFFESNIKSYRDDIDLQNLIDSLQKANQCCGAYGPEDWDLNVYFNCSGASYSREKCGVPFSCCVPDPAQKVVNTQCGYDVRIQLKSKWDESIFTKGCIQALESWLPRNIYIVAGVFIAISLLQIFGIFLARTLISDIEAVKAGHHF

Compound: c1cn2cc(-c3ccc4cn[nH]c4c3)nc(Nc3ccc(N4CCOCC4)cc3)c2n1 [entospletinib]
Assay: log2 fold change, soluble protein after heating vs DMSO (PISA); higher = thermal stabilisation; K562 cells, 10 uM, 30 min; active = over 0.2 and 3.5 SD of the protein, either way, in both replicates (recomputed)
Outline: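 Soluble protein was defined as the supernatant after 21,000xg for 90 min. It came from K562 cells at 2×10^6 cells/mL given 10 μM compound for 30 min, heated in aliquots for 3 min across 48°C-58°C, pooled, and extracted in PBS with 0.5% NP-40 at 4°C, and was quantified by TMTpro 16plex LC-MS/MS with equalised channel sums. Thermal stability against control samples, from duplicates, is reported as log2 fold change.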

log2 fold change, inactive:
TWF2 (UniProt Q6IBS0) 0.018
UBE2B (UniProt P63146) -0.032
TUBGCP2 isoform 4 (UniProt Q9BSJ2) 0.126
TTPAL (UniProt Q9BTX7) 0.035
TTC5 (UniProt Q8N0Z6) -0.062
UBA2 (UniProt Q9UBT2) 0.038
UBE2R2 (UniProt Q712K3) 0.015
TUBB1 (UniProt Q9H4B7) -0.007
UBA3 (UniProt Q8TBC4) -0.046
TTLL12 (UniProt Q14166) 0.347
TSPAN14 (UniProt Q8NG11) -0.037
